The reference is the same well before dosing, and untreated signal decays as well.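 Fibroblast labels name human fibroblasts: mostly primary ones from tissues such as uterus (C12385, HUF), lung (H6013), bone (Hs27A), adrenal (HADF) and skin (WS1), plus mammary HMF and breast cancer-associated Hs343T. The cancer cells are basal-like or mesenchymal-like triple-negative breast cancer lines. The paper calls a changed response a hit when it shifts by more than 3x the replicate standard deviation. The tissue of the other fibroblasts is not given here.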
Tested on: MDAMB231
Assay: relative JC-1 red fluorescence (viability) vs pre-drug, coculture with fibroblast (fraction); higher = more viable cancer cells
Method: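 JC-1 labelled TNBC cells cocultured 1:1 (1,500 cells each) with CellTrace Violet stained primary or stromal fibroblasts in 384-well plates in FluoroBrite medium, treated with one of 42 anticancer drugs at 0.1, 1, 10 or 100 uM. JC-1 red fluorescence (mitochondrial integrity in cancer cells only) was read by plate reader every 8 h for 72 h. Values are normalised to each well's pre-drug value. The stock of one drug was tenfold lower, so its dose labels may be too high.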

N#Cc1ccc(C(c2ccc(C#N)cc2)n2cncn2)cc1 [Letrozole]
relative JC-1 red fluorescence
Settings | 8 h | 16 h | 24 h | 32 h | 40 h | 48 h | 56 h | 64 h | 72 h
10 µM, coculture fibroblast: C12385 | 0.762 | 0.761 | 0.651 | 0.668 | 0.613 | 0.582 | 0.539 | 0.525 | 0.503
10 µM, coculture fibroblast: H6013 | 0.898 | 0.848 | 0.805 | 0.777 | 0.727 | 0.685 | 0.68 | 0.665 | 0.623
10 µM, coculture fibroblast: H6019 | 0.7921 | 0.749 | 0.656 | 0.67 | 0.625 | 0.6 | 0.56 | 0.543 | 0.509
10 µM, coculture fibroblast: H6076 | 0.869 | 0.781 | 0.708 | 0.672 | 0.631 | 0.594 | 0.56 | 0.55 | 0.531
10 µM, coculture fibroblast: H6231 | 0.906 | 0.8047 | 0.7211 | 0.6701 | 0.614 | 0.58 | 0.536 | 0.508 | 0.491
10 µM, coculture fibroblast: HADF | 0.8777 | 0.833 | 0.783 | 0.73 | 0.693 | 0.633 | 0.625 | 0.597 | 0.549
10 µM, coculture fibroblast: HCFa | 0.904 | 0.854 | 0.804 | 0.767 | 0.7073 | 0.6422 | 0.61761 | 0.5876 | 0.547
10 µM, coculture fibroblast: HCPF | 0.872 | 0.772 | 0.6958 | 0.659 | 0.598 | 0.549 | 0.502 | 0.473 | 0.448
10 µM, coculture fibroblast: HHSteC | 0.8877 | 0.846 | 0.795 | 0.751 | 0.7 | 0.654 | 0.61 | 0.588 | 0.545
10 µM, coculture fibroblast: HMF | 0.891 | 0.82 | 0.774 | 0.738 | 0.697 | 0.658 | 0.619 | 0.589 | 0.57
10 µM, coculture fibroblast: HPFa | 0.9305 | 0.8863 | 0.8163 | 0.7501 | 0.719 | 0.6759 | 0.6277 | 0.585 | 0.5289
10 µM, coculture fibroblast: HUF | 0.813 | 0.722 | 0.7056 | 0.6012 | 0.548 | 0.521 | 0.4759 | 0.475 | 0.455
10 µM, coculture fibroblast: Hs5 | 0.888 | 0.818 | 0.756 | 0.704 | 0.652 | 0.599 | 0.558 | 0.526 | 0.497
10 µM, coculture fibroblast: Hs27A | 0.89 | 0.834 | 0.789 | 0.755 | 0.702 | 0.627 | 0.625 | 0.602 | 0.559
10 µM, coculture fibroblast: Hs343T | 0.87 | 0.77 | 0.7 | 0.662 | 0.602 | 0.546 | 0.487 | 0.468 | 0.43
10 µM, coculture fibroblast: WS1 | 0.7708 | 0.704 | 0.678 | 0.588 | 0.538 | 0.512 | 0.468 | 0.463 | 0.436
100 µM, coculture fibroblast: C12385 | 0.7702 | 0.759 | 0.65 | 0.663 | 0.609 | 0.584 | 0.554 | 0.539 | 0.519
100 µM, coculture fibroblast: H6013 | 0.9 | 0.833 | 0.819 | 0.8161 | 0.782 | 0.766 | 0.772 | 0.749 | 0.72
100 µM, coculture fibroblast: H6019 | 0.818 | 0.756 | 0.704 | 0.7 | 0.679 | 0.67 | 0.642 | 0.633 | 0.595
100 µM, coculture fibroblast: H6076 | 0.921 | 0.852 | 0.803 | 0.79 | 0.758 | 0.724 | 0.692 | 0.673 | 0.66
100 µM, coculture fibroblast: H6231 | 0.862 | 0.895 | 0.832 | 0.798 | 0.763 | 0.733 | 0.677 | 0.661 | 0.631
100 µM, coculture fibroblast: HADF | 0.915 | 0.894 | 0.857 | 0.849 | 0.823 | 0.772 | 0.759 | 0.743 | 0.706
100 µM, coculture fibroblast: HCFa | 0.883 | 0.818 | 0.795 | 0.779 | 0.739 | 0.724 | 0.703 | 0.681 | 0.647
100 µM, coculture fibroblast: HCPF | 0.906 | 0.838 | 0.785 | 0.786 | 0.75 | 0.73 | 0.7 | 0.675 | 0.663
100 µM, coculture fibroblast: HHSteC | 0.932 | 0.885 | 0.867 | 0.856 | 0.821 | 0.803 | 0.768 | 0.744 | 0.712
100 µM, coculture fibroblast: HMF | 0.872 | 0.875 | 0.806 | 0.826 | 0.758 | 0.785 | 0.734 | 0.798 | 0.754
100 µM, coculture fibroblast: HPFa | 0.956 | 0.889 | 0.845 | 0.8021 | 0.7741 | 0.7442 | 0.687 | 0.659 | 0.6036
100 µM, coculture fibroblast: HUF | 0.885 | 0.8007 | 0.77794 | 0.689 | 0.626 | 0.6017 | 0.5414 | 0.5318 | 0.5091
100 µM, coculture fibroblast: Hs5 | 0.909 | 0.842 | 0.803 | 0.764 | 0.716 | 0.674 | 0.638 | 0.619 | 0.6
100 µM, coculture fibroblast: Hs27A | 0.9069 | 0.8618 | 0.8285 | 0.805 | 0.753 | 0.677 | 0.675 | 0.646 | 0.598
100 µM, coculture fibroblast: Hs343T | 0.9357 | 0.859 | 0.811 | 0.8 | 0.748 | 0.707 | 0.644 | 0.623 | 0.594
100 µM, coculture fibroblast: WS1 | 0.791 | 0.759 | 0.67 | 0.672 | 0.629 | 0.611 | 0.562 | 0.545 | 0.521
